Patent US6555566B2, “Methods and materials for treating and preventing inflammation of mucosal tissue” (Mayo Foundation for Medical Education and Research, priority 1997, dated 2003)
At least one compound was matched to its structure with a doubt left.

Experiments:
Assay type in all cases: in vivo, human
asthma patient [1] = assay: Itraconazole nasal irrigations in a chronic asthma patient
[2] = tested on: non-invasive fungus-induced rhinosinusitis patients; assay: Itraconazole nasal irrigations in rhinosinusitis patients; details: asthma medication reduced from twice to once a day
Procedure: Three non-invasive fungus-induced rhinosinusitis patients (person, person, and person) were instructed to perform nasal irrigation with an itraconazole solution. The itraconazole solution contained about 100 mg of itraconazole per L of solution (10% PEG-400 in sterile water) and was prepared as described herein. […] Each patient reported marked improvement in symptoms within two weeks of starting the itraconazole irrigations (symptom scores: −1 to +2 and −1 to +1).
After treatment with itraconazole, that patient reported symptom improvement (symptom score: from −1 to 0).

asthma patient [3] = assay: Itraconazole powder inhaler in asthma patients

`CCC(C)n1ncn(-c2ccc(N3CCN(c4ccc(OCC5COC(Cn6cncn6)(c6ccc(Cl)cc6Cl)O5)cc4)CC3)cc2)c1=O` (stereo not drawn) [itraconazole] was tested, and the “outcome after stopping the irrigations” value (asthma patient [1]; after four to six weeks of not using the itraconazole irrigations) was “asthma symptoms returned”, the “patient's asthma symptoms since stopping all steroid therapy” value (asthma patient [1]; on itraconazole irrigations, no shortness of breath, no wheezing for four to five months) was “improved dramatically” and the “asthma symptoms as indicated by the patient” value [2] was “dramatically improved”. For the same compound, the “patient's condition on powder inhaler” value (asthma patient [3]; about 200 μg of pure itraconazole per day, after about 2 weeks) was “markedly improved”, the nasal polyp (asthma patient [3]; about 400 μg of pure itraconazole per day by inhaler, by the second week of treatment) was “noticeably reduced in viability” and the “asthma state on powder inhaler” value (asthma patient [3]; about 400 μg of pure itraconazole per day, adapted TURBOHALER) was “asymptomatic for four weeks”.
